Measurements: the supplement of paper PMC10849652
Some of the results follow.

By UniProt entry, the sequences of proteins in these tests, tags left out. Where a name states a change or a piece, a line headed by the entry shows the natural chain unless it says otherwise.
UniProt Q8TCY9: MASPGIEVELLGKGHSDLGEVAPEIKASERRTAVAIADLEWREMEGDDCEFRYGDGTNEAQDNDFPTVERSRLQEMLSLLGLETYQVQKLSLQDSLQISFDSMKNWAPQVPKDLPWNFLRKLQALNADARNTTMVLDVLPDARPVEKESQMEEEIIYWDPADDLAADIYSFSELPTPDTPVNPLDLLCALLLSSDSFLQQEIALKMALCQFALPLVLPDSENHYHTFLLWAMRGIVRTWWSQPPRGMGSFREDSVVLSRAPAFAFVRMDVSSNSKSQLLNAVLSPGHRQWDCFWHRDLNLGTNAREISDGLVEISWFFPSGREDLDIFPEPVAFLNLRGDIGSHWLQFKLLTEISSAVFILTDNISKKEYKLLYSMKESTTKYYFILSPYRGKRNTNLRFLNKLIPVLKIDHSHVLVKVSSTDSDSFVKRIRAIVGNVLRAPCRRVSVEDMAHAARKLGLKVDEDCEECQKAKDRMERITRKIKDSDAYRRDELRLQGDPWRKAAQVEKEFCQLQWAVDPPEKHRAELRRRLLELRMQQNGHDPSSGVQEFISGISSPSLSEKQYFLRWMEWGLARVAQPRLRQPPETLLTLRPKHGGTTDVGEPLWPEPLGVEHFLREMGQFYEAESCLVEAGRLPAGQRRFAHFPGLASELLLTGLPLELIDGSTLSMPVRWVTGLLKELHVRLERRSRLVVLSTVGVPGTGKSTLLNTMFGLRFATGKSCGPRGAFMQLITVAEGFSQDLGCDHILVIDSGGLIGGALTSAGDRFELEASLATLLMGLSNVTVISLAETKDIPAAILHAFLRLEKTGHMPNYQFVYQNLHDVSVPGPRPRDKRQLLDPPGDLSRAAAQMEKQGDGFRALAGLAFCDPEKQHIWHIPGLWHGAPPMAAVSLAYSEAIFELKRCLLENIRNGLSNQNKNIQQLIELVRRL
UniProt P61960, whole entry, looked up: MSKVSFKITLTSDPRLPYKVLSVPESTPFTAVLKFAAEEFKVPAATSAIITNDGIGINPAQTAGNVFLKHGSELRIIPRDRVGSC
UniProt Q8IX04: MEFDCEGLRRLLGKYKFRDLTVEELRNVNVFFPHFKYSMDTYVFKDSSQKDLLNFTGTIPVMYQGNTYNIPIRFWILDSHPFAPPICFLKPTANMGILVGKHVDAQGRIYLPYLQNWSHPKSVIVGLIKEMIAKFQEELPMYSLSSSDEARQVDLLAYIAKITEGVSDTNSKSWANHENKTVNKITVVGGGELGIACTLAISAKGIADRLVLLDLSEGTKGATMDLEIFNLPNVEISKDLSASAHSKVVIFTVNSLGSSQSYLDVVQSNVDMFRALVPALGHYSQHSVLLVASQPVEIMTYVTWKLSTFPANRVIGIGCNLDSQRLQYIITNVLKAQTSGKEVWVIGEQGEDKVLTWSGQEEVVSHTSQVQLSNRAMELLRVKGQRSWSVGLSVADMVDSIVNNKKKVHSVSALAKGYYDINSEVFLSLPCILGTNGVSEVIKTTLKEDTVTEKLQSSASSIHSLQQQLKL
UniProt O95155, whole entry, looked up: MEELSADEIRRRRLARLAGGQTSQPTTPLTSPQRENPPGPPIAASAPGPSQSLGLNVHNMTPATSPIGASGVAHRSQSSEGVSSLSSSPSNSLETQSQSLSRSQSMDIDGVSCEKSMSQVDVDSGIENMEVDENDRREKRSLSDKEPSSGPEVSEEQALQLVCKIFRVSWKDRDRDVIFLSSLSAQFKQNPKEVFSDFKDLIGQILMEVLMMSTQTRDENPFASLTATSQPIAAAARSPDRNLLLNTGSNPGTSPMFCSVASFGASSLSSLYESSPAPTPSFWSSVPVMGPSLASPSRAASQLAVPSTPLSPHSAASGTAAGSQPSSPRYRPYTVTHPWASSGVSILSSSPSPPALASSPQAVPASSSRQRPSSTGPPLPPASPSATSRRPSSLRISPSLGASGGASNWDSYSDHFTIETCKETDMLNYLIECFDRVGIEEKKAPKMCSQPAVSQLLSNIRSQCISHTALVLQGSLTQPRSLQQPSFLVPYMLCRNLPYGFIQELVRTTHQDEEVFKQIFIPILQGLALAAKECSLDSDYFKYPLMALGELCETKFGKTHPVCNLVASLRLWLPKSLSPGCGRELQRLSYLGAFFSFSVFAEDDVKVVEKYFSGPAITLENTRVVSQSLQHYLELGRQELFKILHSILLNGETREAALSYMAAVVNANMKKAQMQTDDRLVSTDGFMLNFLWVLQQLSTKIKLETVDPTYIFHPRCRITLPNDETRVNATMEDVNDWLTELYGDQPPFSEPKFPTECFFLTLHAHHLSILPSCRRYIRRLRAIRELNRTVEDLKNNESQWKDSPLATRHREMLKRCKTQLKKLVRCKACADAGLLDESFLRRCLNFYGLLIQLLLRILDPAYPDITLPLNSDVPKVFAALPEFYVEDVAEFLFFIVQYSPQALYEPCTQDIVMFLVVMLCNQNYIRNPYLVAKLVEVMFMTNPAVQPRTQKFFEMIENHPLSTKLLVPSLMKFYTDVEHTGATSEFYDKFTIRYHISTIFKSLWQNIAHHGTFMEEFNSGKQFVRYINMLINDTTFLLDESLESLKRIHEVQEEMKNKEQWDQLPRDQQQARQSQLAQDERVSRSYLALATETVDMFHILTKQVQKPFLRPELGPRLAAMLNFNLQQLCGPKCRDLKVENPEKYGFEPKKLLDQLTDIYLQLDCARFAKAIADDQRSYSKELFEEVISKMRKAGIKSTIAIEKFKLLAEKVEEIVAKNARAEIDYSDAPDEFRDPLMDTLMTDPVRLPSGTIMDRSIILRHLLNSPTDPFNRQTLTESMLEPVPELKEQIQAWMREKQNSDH
UniProt Q9UBK9, whole entry, looked up: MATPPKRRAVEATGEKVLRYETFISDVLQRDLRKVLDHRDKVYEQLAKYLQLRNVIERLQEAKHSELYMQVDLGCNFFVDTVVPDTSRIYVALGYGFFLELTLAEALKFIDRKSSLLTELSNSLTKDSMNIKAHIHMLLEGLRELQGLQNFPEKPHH
UniProt P22415: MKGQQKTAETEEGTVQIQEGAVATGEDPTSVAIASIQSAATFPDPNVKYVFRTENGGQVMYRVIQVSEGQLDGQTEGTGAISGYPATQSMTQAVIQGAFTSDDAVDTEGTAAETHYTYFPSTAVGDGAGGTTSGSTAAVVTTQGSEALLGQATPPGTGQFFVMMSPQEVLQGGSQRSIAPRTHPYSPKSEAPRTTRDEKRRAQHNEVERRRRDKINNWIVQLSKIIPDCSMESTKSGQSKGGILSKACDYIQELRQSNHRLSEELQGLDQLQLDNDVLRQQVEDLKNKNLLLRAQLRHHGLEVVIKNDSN
UniProt Q9Y5K5, whole entry, looked up: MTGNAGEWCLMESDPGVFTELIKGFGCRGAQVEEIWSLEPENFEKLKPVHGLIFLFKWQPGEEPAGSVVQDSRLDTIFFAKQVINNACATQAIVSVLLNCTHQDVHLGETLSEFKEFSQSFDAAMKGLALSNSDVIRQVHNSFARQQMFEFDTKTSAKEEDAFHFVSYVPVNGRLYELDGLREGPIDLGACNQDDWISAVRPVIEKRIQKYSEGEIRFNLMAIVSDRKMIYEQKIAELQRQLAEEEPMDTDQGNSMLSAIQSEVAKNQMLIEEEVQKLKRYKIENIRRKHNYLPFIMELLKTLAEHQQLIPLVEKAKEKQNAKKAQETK
UniProt P51809, whole entry, looked up: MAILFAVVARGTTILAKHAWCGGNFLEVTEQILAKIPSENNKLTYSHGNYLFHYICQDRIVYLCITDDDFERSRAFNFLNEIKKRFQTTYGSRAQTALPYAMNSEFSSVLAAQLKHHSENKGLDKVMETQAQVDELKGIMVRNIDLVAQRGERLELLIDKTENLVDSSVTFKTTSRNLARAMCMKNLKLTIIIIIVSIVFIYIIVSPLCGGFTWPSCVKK

Experiments:
Assay in all cases: log2 fold change, soluble protein after heating vs DMSO (PISA); higher = thermal stabilisation; K562 cells, 10 uM, 30 min; active = over 0.2 and 3.5 SD of the protein, either way, in both replicates (recomputed)
[1] = compound: COC1=CC=C(C=C1)CN2C=CC3=C2C=C(C=C3)C(=O)NO
How it was run: (§1)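 Soluble protein was quantified by TMTpro 16plex LC-MS/MS after channel sums were equalised. It was obtained as the supernatant after 21,000xg for 90 min from pooled aliquots of K562 cells (2×10^6 cells/mL, 10 μM compound, 30 min) heated for 3 min across 48°C-58°C and extracted in PBS with 0.5% NP-40 at 4°C. Thermal stability values are relative to control samples and come from duplicates. They are given as log2 fold changes.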

filanesib = compound: CON(C)C(=O)N1N=C(c2cc(F)ccc2F)S[C@@]1(CCCN)c1ccccc1 [filanesib]
How it was run: as §1

zotarolimus = compound: CO[C@H]1C[C@@H]2CC[C@@H](C)[C@@](O)(O2)C(=O)C(=O)N2CCCC[C@H]2C(=O)O[C@H]([C@H](C)C[C@@H]2CC[C@H](n3cnnn3)[C@H](OC)C2)CC(=O)[C@H](C)/C=C(\C)[C@@H](O)[C@@H](OC)C(=O)[C@H](C)C[C@H](C)/C=C/C=C/C=C/1C [zotarolimus]
How it was run: as §1

idasanutlin = compound: COc1cc(C(=O)O)ccc1NC(=O)[C@@H]1N[C@@H](CC(C)(C)C)[C@](C#N)(c2ccc(Cl)cc2F)[C@H]1c1cccc(Cl)c1F [idasanutlin]
How it was run: as §1

[2] = compound: COc1cc2nc(-c3cc(F)ccc3O)nc(N[C@@H]3CNC[C@H]3C(C)(C)O)c2cc1OC
How it was run: as §1

gefitinib = compound: COc1cc2ncnc(Nc3ccc(F)c(Cl)c3)c2cc1OCCCN1CCOCC1 [gefitinib]
How it was run: as §1

lapatinib = compound: CS(=O)(=O)CCNCc1ccc(-c2ccc3ncnc(Nc4ccc(OCc5cccc(F)c5)c(Cl)c4)c3c2)o1 [lapatinib]
How it was run: as §1

pictilisib = compound: CS(=O)(=O)N1CCN(Cc2cc3nc(-c4cccc5[nH]ncc45)nc(N4CCOCC4)c3s2)CC1 [pictilisib]
How it was run: as §1

[3] = compound: CS(=O)(=O)c1ccc(-c2cnc(N)c(C(=O)Nc3ccccc3)n2)cc1
How it was run: as §1

crizotinib = compound: C[C@@H](Oc1cc(-c2cnn(C3CCNCC3)c2)cnc1N)c1c(Cl)ccc(F)c1Cl [crizotinib]
How it was run: as §1

[4] = compound: C[C@@H]1COCCN1C2=NC(=NC(=C2)C3(CC3)S(=O)(=O)C)C4=C5C=CNC5=CC=C4
How it was run: as §1

[5] = compound: C[C@H](C1=CC=C(C=C1)C(=O)NC2=C3C=CNC3=NC=C2)N
How it was run: as §1

duvelisib = compound: C[C@H](Nc1ncnc2nc[nH]c12)c1cc2cccc(Cl)c2c(=O)n1-c1ccccc1 [duvelisib]
How it was run: as §1

gandotinib = compound: Cc1cc(Nc2cc(CN3CCOCC3)c3nc(C)c(Cc4ccc(Cl)cc4F)n3n2)n[nH]1 [gandotinib]
How it was run: as §1

tozasertib = compound: Cc1cc(Nc2cc(N3CCN(C)CC3)nc(Sc3ccc(NC(=O)C4CC4)cc3)n2)n[nH]1 [tozasertib]
How it was run: as §1

[6] = compound: Cc1cc(SCc2sc(-c3ccc(C(F)(F)F)cc3)nc2C)ccc1OCC(=O)O
How it was run: as §1

doramapimod = compound: Cc1ccc(-n2nc(C(C)(C)C)cc2NC(=O)Nc2ccc(OCCN3CCOCC3)c3ccccc23)cc1 [doramapimod]
How it was run: as §1

ispinesib = compound: Cc1ccc(C(=O)N(CCCN)[C@@H](c2nc3cc(Cl)ccc3c(=O)n2Cc2ccccc2)C(C)C)cc1 [ispinesib]
How it was run: as §1

alisertib = compound: COc1cc(Nc2ncc3c(n2)-c2ccc(Cl)cc2C(c2c(F)cccc2OC)=NC3)ccc1C(=O)O [alisertib]
How it was run: as §1

[7] = compound: COc1cccc2cc(-c3nc([C@H]4CC[C@H](C(=O)O)CC4)n4ncnc(N)c34)[nH]c12
How it was run: as §1

Row | Target | log2 fold change [1] | log2 fold change (filanesib) | log2 fold change (zotarolimus) | log2 fold change (idasanutlin) | log2 fold change [2] | log2 fold change (gefitinib) | log2 fold change (lapatinib) | log2 fold change (pictilisib) | log2 fold change [3] | log2 fold change (crizotinib) | log2 fold change [4] | log2 fold change [5] | log2 fold change (duvelisib) | log2 fold change (gandotinib) | log2 fold change (tozasertib) | log2 fold change [6] | log2 fold change (doramapimod) | log2 fold change (ispinesib) | log2 fold change (alisertib) | log2 fold change [7]
1 | URGCP (UniProt Q8TCY9) | inactive: -0.033 | inactive: 0.161 | inactive: 0.039 | inactive: 0.049 | inactive: 0.102 | inactive: -0.161 | inactive: 0.002 | inactive: 0.015 | inactive: 0.106 | inactive: -0.032 | inactive: 0.112 | inactive: -0.06 | inactive: 0.058 | inactive: -0.108 | inactive: -0.035 | inactive: 0.04 | inactive: 0.012 | inactive: -0.093 | – | –
2 | UFM1 (UniProt P61960) | inactive: 0.048 | inactive: -0.08 | inactive: -0.139 | inactive: 0.28 | inactive: 0.01 | inactive: 0.069 | inactive: -0.002 | – | inactive: 0.021 | inactive: 0.004 | inactive: 0.178 | inactive: -0.062 | – | – | – | inactive: -0.043 | inactive: -0.037 | inactive: 0.158 | inactive: -0.001 | inactive: 0.055
3 | UEVLD (UniProt Q8IX04) | inactive: -0.139 | inactive: -0.124 | inactive: -0.256 | inactive: -0.175 | – | inactive: -0.036 | – | inactive: -0.178 | inactive: -0.027 | inactive: -0.062 | inactive: -0.179 | inactive: -0.106 | inactive: 0.132 | inactive: 0.153 | inactive: 0.007 | inactive: -0.001 | inactive: 0.164 | – | inactive: 0.124 | inactive: 0.154
4 | UBE4B isoform 4 (UniProt O95155) | inactive: 0.04 | inactive: -0.009 | inactive: -0.008 | inactive: -0.031 | inactive: 0.021 | inactive: -0.048 | inactive: -0.01 | inactive: 0.063 | inactive: 0.016 | inactive: -0.013 | inactive: 0.012 | inactive: -0.015 | – | inactive: -0.048 | – | inactive: 0.019 | inactive: -0.048 | inactive: 0 | inactive: -0.035 | inactive: 0.021
5 | UXT isoform 2 (UniProt Q9UBK9) | active: 0.473 | inactive: 0.001 | inactive: -0.067 | inactive: 0.026 | inactive: 0.033 | inactive: 0.049 | inactive: 0.077 | inactive: 0.25 | inactive: 0.063 | inactive: 0.056 | inactive: 0.184 | inactive: 0.006 | – | inactive: 0.255 | – | inactive: -0.034 | inactive: 0.017 | inactive: -0.035 | inactive: -0.016 | inactive: -0.025
6 | USF1 (UniProt P22415) | inactive: -0.117 | inactive: 0.11 | – | inactive: -0.097 | inactive: -0.01 | inactive: -0.041 | inactive: -0.056 | inactive: -0.109 | inactive: 0.08 | inactive: -0.043 | inactive: -0.017 | – | – | inactive: -0.035 | – | – | inactive: -0.098 | inactive: -0.031 | inactive: -0.051 | inactive: 0
7 | VARS2, A0A0G2JL52 | inactive: 0.061 | inactive: -0.078 | inactive: 0.001 | inactive: -0.04 | inactive: -0.017 | inactive: -0.009 | inactive: 0.022 | inactive: 0.024 | inactive: 0.004 | inactive: 0 | inactive: 0.06 | inactive: 0.018 | – | inactive: -0.061 | – | inactive: 0.025 | inactive: 0.048 | active: -0.244 | inactive: -0.01 | inactive: 0.064
8 | UCHL5 isoform 3 (UniProt Q9Y5K5) | inactive: 0.229 | inactive: -0.13 | inactive: 0.227 | inactive: 0.057 | inactive: 0.036 | inactive: -0.04 | inactive: -0.07 | – | inactive: 0.039 | inactive: -0.458 | inactive: 0.058 | inactive: -0.05 | – | – | – | – | inactive: -0.067 | inactive: 0.02 | inactive: 0.072 | inactive: 0.16
9 | VAMP7 (UniProt P51809) | inactive: 0.035 | inactive: -0.095 | inactive: -0.005 | inactive: -0.111 | inactive: 0.099 | inactive: 0.033 | inactive: -0.005 | inactive: -0.001 | inactive: 0.021 | active: -0.299 | inactive: 0.005 | inactive: -0.046 | – | inactive: -0.026 | – | inactive: -0.011 | inactive: -0.007 | active: -0.275 | inactive: -0.072 | inactive: 0.012

Some of the entries above in another layout:
Row	Target	log2 fold change [1]	log2 fold change (filanesib)	log2 fold change (zotarolimus)	log2 fold change (idasanutlin)	log2 fold change [2]	log2 fold change (gefitinib)	log2 fold change (lapatinib)	log2 fold change (pictilisib)	log2 fold change [3]	log2 fold change (crizotinib)	log2 fold change [4]	log2 fold change [5]	log2 fold change (duvelisib)	log2 fold change (gandotinib)	log2 fold change (tozasertib)	log2 fold change [6]	log2 fold change (doramapimod)	log2 fold change (ispinesib)	log2 fold change (alisertib)	log2 fold change [7]
7	VARS2, A0A0G2JL52	inactive: 0.061	inactive: -0.078	inactive: 0.001	inactive: -0.04	inactive: -0.017	inactive: -0.009	inactive: 0.022	inactive: 0.024	inactive: 0.004	inactive: 0	inactive: 0.06	inactive: 0.018	–	inactive: -0.061	–	inactive: 0.025	inactive: 0.048	active: -0.244	inactive: -0.01	inactive: 0.064
8	UCHL5 isoform 3 (UniProt Q9Y5K5)	inactive: 0.229	inactive: -0.13	inactive: 0.227	inactive: 0.057	inactive: 0.036	inactive: -0.04	inactive: -0.07	–	inactive: 0.039	inactive: -0.458	inactive: 0.058	inactive: -0.05	–	–	–	–	inactive: -0.067	inactive: 0.02	inactive: 0.072	inactive: 0.16
